This is an account of results in PMC9950634.

Amino acid sequences for entries named in this document (tags omitted). Residues count along the entry.
UniProt Q95460, residues 23-341: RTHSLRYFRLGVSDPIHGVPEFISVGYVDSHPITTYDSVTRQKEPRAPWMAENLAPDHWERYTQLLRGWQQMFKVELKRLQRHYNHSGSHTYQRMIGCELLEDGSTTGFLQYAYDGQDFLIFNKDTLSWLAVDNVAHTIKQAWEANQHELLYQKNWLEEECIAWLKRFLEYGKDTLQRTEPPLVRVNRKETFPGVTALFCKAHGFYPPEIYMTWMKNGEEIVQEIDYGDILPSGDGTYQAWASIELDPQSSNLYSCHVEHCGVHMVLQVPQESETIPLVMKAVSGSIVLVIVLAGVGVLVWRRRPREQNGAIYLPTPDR
UniProt P09729, residues 28-247: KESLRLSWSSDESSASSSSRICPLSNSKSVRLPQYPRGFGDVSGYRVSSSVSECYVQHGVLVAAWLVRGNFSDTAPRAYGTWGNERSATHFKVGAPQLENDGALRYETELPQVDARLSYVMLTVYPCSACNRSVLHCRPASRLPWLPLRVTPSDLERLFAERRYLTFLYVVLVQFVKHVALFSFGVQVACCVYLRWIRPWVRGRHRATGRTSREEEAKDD

This assay addresses MR1-GFP (MHC class I related protein-1 fused to GFP) (UniProt Q95460). The assay can be described thus: affinity purification with mass spectrometry; HF cells expressing MR1-GFP or control GFP infected with HCMV for 48 h; proteins immuno-affinity isolated using the GFP tag, interacting partners identified by mass spectrometry.

Results are given in words; binding and its absence hold for the method and conditions named. Binding seen in cells or lysates may run through a third protein. A yes stands for co-enrichment or nearness to the bait. Other partners may have been found.

On to “HCMV glycoprotein gpUS9 (US9 gene product) (from UniProt P09729 28-247)”, for which the binding entry was “binds”.
